These results are taken from paper doi:10.1101/842682.

No constants are given. Whether binding was seen depends on the method and setting. Binding seen in cells or lysates may run through a third protein. Some binding calls cover weakened binding; strength is not graded here. Where a sequence is shown, tags or fusion partners need not be part of it.

The target of one test is T1, GFP-Cep57l1 (mouse) (UniProt Q8VDS7).
T1 sequence: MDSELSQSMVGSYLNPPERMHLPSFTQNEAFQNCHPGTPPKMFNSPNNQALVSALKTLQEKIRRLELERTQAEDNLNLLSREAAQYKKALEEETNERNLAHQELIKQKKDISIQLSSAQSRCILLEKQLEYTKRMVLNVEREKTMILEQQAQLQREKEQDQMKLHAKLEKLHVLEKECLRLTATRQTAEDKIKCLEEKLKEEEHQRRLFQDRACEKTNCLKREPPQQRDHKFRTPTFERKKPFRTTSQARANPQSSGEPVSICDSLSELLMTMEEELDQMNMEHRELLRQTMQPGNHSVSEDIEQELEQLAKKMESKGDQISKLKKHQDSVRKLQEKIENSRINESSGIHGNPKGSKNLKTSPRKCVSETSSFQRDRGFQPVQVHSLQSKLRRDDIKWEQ
Briefly: co-IP.

The next test addresses T2, GFP-Cep57 (mouse) (UniProt Q8CEE0).
T2 sequence: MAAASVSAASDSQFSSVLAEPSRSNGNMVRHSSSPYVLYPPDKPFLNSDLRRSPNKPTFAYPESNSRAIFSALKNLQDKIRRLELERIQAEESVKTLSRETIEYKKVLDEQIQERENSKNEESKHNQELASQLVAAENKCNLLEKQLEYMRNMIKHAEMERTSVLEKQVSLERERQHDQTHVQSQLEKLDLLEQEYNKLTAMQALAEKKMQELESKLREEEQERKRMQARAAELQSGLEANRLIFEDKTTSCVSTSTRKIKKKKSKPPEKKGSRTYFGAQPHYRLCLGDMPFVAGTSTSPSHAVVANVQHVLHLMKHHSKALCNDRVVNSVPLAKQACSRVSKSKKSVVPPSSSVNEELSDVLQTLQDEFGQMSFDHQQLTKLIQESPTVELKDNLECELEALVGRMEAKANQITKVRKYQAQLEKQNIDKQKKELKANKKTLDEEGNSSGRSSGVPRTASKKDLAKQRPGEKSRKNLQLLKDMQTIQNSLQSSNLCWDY
Briefly: co-IP.

The next test concerns the target T3, GST-Cep57 (mouse) (UniProt Q8CEE0).
T3 sequence: T2 sequence
Briefly: pull-down.

B1: Flag-Cep63 (protein, UniProt Q3UPP8 1-700)
chain: MEALLEGIQNRGHSGGFLTSCEAELQELMKQIDIMVAHKKSEWEGQTHALETCLDIRDRELKALRSQLDMKHKEVGILHQQIEEHEKTKQEMAMEYKEELLKLQEELSRLKRSYEKLQKKQLREFRGNTKSFREDRSEIERLTGKIEEFRQKSLDWEKQRLIYQQQVSSLEAQRKALAEQSEIIQAQLANRKQKLESVELSSQSEIQHLNSKLERAKDTICANELEIERLNIRVNDLMGTNMTILQDHRQKEEKLRESEKLLEALQEEQKELKASLQSQETFILEAKMQEKLQTTLKAVGTQQSVERPLEDCQKERKYSSPGQGVLDNVLSQLDFSHSSEELLQAEVTRLEGSLESVSATCKQLSQELMEKYEELKRMEGHNNEYRTEIKKLKEQILQADQTYSSALEGMKMEISQLTRELHQRDITIASAKCSSSDMEKQLKAEMQKAEEKAVEHKEILSQLESLKLENHRLSETVMKLELGLHEAKEISLADLQENYIEALNKLVSENQQLQKDLMSTKSELEHATNMCKKKDGEIFNPAHSRAAGFKNAELKPIHGQHRHDGIKTEQYKTGHHSPRGQTLDSIDPVARGPSPLSSHISPGSSTVSLPSNFLFEAHSLPSVLDINDVNFSDSLSDCMNDQEEFVSSGSLPTSPLGSIATRFLEEEELRSHHILERLDAHIEELKRESEKTVRQFTALV
On to B1, for which the binding result with GFP-Cep57l1 (mouse) and in the test with GFP-Cep57 (mouse) was “binds” in each case.

B2: His-Cep63 (protein, UniProt Q3UPP8 1-700)
chain: B1 chain
Turning to B2, in the test with GST-Cep57 (mouse), the binding result is given as “binds”.
